Assay results taken from PubChem BioAssay AID1671190 (National Center for Advancing Translational Sciences (NCATS), 2021).
The campaign covered roughly 580,000 compounds. About 6,100 (1.1%) were called active. Inconclusive means that the source gave no clear call. Such entries were picked first, then a sample of the others. Calls come from the whole dose curve; as a rule, active = well fitted inhibition curve with a large enough effect; inconclusive = small, poorly fitted or top-dose-only effect, or another doubt; inactive = no such curve, though single readings can be large or run the other way. A potency beside an inconclusive call is a rough fit, not a confirmed value.

Protein sequences, listed by entry. Tags and fused reporters are not part of them. Lines headed by an entry give the natural chain unless they say otherwise; changes in a name come on top.
UniProt P18054: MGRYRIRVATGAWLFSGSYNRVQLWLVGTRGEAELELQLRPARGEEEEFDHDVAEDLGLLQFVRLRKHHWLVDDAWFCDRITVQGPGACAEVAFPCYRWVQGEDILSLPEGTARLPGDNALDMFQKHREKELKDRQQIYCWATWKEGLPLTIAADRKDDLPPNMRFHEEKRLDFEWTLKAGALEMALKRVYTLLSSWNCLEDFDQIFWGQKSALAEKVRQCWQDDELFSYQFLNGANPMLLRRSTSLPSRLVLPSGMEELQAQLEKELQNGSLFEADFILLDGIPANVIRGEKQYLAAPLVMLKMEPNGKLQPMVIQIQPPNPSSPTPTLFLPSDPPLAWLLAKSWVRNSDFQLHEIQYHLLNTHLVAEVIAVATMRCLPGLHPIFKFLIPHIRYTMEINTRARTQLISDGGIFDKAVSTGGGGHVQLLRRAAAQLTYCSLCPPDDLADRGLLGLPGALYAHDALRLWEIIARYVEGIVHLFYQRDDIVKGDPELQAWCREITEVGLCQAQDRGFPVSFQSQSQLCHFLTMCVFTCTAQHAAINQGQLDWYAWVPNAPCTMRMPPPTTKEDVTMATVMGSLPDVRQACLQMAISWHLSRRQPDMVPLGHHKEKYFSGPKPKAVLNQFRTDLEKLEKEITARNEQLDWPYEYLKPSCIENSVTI

Target: Polyunsaturated fatty acid lipoxygenase ALOX12 (Homo sapiens) (UniProt P18054)
Test: Primary qHTS assay for inhibitors of human arachidonate 12S-lipoxygenase (ALOX12): Round 2
Details: purified 12hLO, xylenol orange hydroperoxide absorbance; activity change, negative = inhibition: at 108 µM (top of the series) unless noted
Outline: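 Purified human 12hLO at 150 nM in 25 mM Hepes, 0.01% Triton X-100, pH 7.0, preincubated 15 min at room temperature with compound. Reaction started with 40 uM arachidonic acid, 30 min at room temperature. Hydroperoxide measured by Fe-xylenol orange, 573/405 nm absorbance ratio.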
% is set by controls: 0 for no effect and ±100 for the full control effect; potency is the fitted concentration of half-maximal effect.

Compound | activity change, negative = inhibition | Potency
CCCNc1c(NC(=O)Nc2ccc(F)cc2F)c(=O)oc2ccccc12 | inactive: -7.15% | 
COc1ccc(NC(=O)CCC(=O)c2cccs2)cc1Cl | inactive: 99% | 
Cc1ccc(-n2c(COCC(=O)O)nc3cccnc32)cc1 |  | inconclusive: 100 µM [inhibitor, partial curve, poor fit]
CN(Cc1ccsc1)C1CCOc2ccccc21 (stereo not given) | inactive: 31.1% [at 176 µM] | 
COCC1CN(S(=O)(=O)c2cccc3cccnc23)CC12CCNCC2 (stereo not given) |  | inconclusive: 17.8 µM [inhibitor, full curve]
CC1(c2ccc3ccccc3c2)CCC(=O)O1 (stereo not given) | inactive: 8.45% | 
Cc1ccc(-c2cc(C(=O)N[C@H]3Cc4ccccc4[C@@H]3N)n[nH]2)s1 |  | inconclusive: 25.1 µM [inhibitor, full curve]
COc1ccc(NC(=O)Cc2coc3ccc4ccccc4c23)cc1S(=O)(=O)N1CCOCC1 |  | inconclusive: 15.8 µM [inhibitor, partial curve, poor fit]
CCN(CC)C(=O)COc1ccc2c(C)cc(=O)oc2c1 | inconclusive: -36.1% [inhibitor] | 
CNC(=O)c1cccc(-c2cnc(Nc3ccc(N4CCOCC4)cc3)c3c2CCO3)c1 |  | inconclusive: 126 µM [inhibitor, single point]
COc1ccc(C(=O)N2CCC3(CCN(Cc4ccccc4OC)CC3)CC2)cc1 | inactive: 2.13% [at 57.4 µM] | 
C[C@H](CO)N1C[C@H](C)[C@@H](CN(C)S(=O)(=O)c2ccc(F)cc2)Oc2c(NC(=O)Nc3ccc(C(F)(F)F)cc3)cccc2C1=O | inactive: -9.73% | 
CN1CCN(C(=O)Cn2nc(-c3ccc(Cl)cc3)c3ccccc3c2=O)CC1 | inactive: 2.87% | 
O=c1nc2s/c(=C\c3ccc(-c4ccccc4[N+](=O)[O-])o3)c(=O)n2nc1-c1ccccc1 |  | active: 11.2 µM
CCc1nnc(NC(=O)c2nc(Cl)ccc2Cl)s1 | inactive: 461% | 
CN(C)Cc1ccccc1-c1cc(N(C)C)ncn1 |  | active: 39.8 µM
Cc1ccc(NC(=O)NC2CCCN2S(=O)(=O)c2ccc(Cl)cc2)cc1 (stereo not given) |  | inconclusive: 79.4 µM [inhibitor, partial curve, poor fit]
Cc1ccc(Cl)cc1N1CCN(C(=O)c2cc3c(=O)oc4ccccc4c3s2)CC1 |  | inconclusive: 112 µM [inhibitor, single point]
COCCn1c(SCC(=O)c2ccc3c(c2)CCC3)nnc1-c1ccc(Cl)cc1 |  | inconclusive: 44.7 µM [inhibitor, partial curve, poor fit]
CCOc1ccccc1NC(=S)Nn1cnnc1 |  | inconclusive: 100 µM [inhibitor, single point]
CN(C)[C@@H]1C[C@H](Cn2cc(C3CC3)nn2)[C@@H](O)[C@H]1O |  | inconclusive: 31.6 µM [inhibitor, full curve]
CCN(CC)C(=O)c1cccc(-c2csc(C(O)c3ccc(OC)cc3)n2)c1 (stereo not given) | inactive: -25.8% | 
Cc1cccc(C(=O)N2CCC(=O)N([C@H](COCc3ccc(Cl)cc3)Cc3ccccc3)CC2)c1 |  | inconclusive: 31.6 µM [inhibitor, partial curve, poor fit]

Compound | activity change, negative = inhibition | Potency
Cc1cc(SCC(=O)NC(=O)NCc2ccco2)nc2c(C)cccc12 |  | active: 22.4 µM
Cc1cc2cc(CN(C(=O)C3CC3)C3CCCC3)c3nnnn3c2cc1C | inactive: 0% | 
CCOc1ccc(N2CC(NC(=O)C3CCCC3)CC2=O)cc1 (stereo not given) |  | inconclusive: 3.98 µM [inhibitor, full curve, poor fit]
Cc1ccc(CNC(=O)CCCC(=O)Nc2cc(C)on2)cc1 | inactive: 11.2% | 
Cc1nn(Cc2ccccc2)c(C)c1[C@@H]1C=C[C@@H](NC(=O)CC2(CC(=O)O)CCCC2)C1 | inactive: 12.5% | 
CCC(CC)C(=O)N[C@H]1C[C@@H](Cc2cc(COc3ccccc3)on2)C1(C)C |  | inconclusive: 100 µM [inhibitor, partial curve, poor fit]
Cc1ccc(C)c(N2CCN(CCCNC(=O)c3ccc4nc(CCc5ccccc5)oc4c3)CC2)c1 |  | inconclusive: 44.7 µM [inhibitor, partial curve, poor fit]
COc1cccc(N2CC(C(=O)Nc3ccc(F)cc3)CC2=O)c1 (stereo not given) |  | inconclusive: 112 µM [inhibitor, single point]
CC(C)c1ccc(/C=C/C(=O)N2CCc3ccccc3C2)cc1 |  | inconclusive: 70.8 µM [inhibitor, partial curve, poor fit]
COc1cccc(N2CC(NC(=O)c3cc(Cl)ccc3OC)CC2=O)c1 (stereo not given) |  | inconclusive: 70.8 µM [inhibitor, partial curve, poor fit]
S=c1[nH]c(-c2ccc(Cl)cc2Cl)cs1 |  | active: 12.6 µM
CNC(=O)c1[nH]nc2c1CCc1ccccc1-2 | inactive: 63.3% | 
NC(=O)CO[C@@H]1CO[C@H]2[C@@H]1OC[C@@H]2NC(=S)NC1CCCCC1 |  | inconclusive: 63.1 µM [inhibitor, full curve]
c1ccc(-c2ccc(OCCOCCn3cncn3)cc2)cc1 |  | inconclusive: 2.51 µM [inhibitor, full curve, poor fit]
Oc1c(Br)cc(Br)cc1C=Nc1ccc2c(c1)OCO2 |  | inconclusive: 44.7 µM [inhibitor, partial curve, poor fit]
CSCCC(NS(=O)(=O)c1ccc(Cl)cc1)C(=O)OCc1cccc(Cl)c1 (stereo not given) |  | inconclusive: 50.1 µM [inhibitor, partial curve, poor fit]
O=C(/C=C/c1ccco1)NCc1ccc2c(c1)OCO2 |  | inconclusive: 100 µM [inhibitor, single point]
O=C(O)C(O)Cc1ccc(O)c(O)c1 (stereo not given) |  | inconclusive: 31.6 µM [inhibitor, single point]
COC[C@@H]1[C@H](C(=O)Nc2ccc(OC)nc2)CCC(=O)N1C | inactive: 31.2% | 
CC1(C)CN(C(=O)C2CCCO2)CCO1 (stereo not given) |  | inconclusive: 3.55 µM [inhibitor, full curve, poor fit]
CCN1C(=NCCc2c[nH]c3ccccc23)N[C@@H](c2ccccc2)[C@H](C(=O)OC)[C@H]1C |  | inconclusive: 44.7 µM [inhibitor, partial curve, poor fit]
COc1ccc(NC(=O)COc2coc(CN3CCSCC3)cc2=O)cc1 | inactive: 22.7% | 

2 records drawn at random from the list so far, as already listed:
Compound | activity change, negative = inhibition | Potency
CCCNc1c(NC(=O)Nc2ccc(F)cc2F)c(=O)oc2ccccc12 | inactive: -7.15% | 
CCC(CC)C(=O)N[C@H]1C[C@@H](Cc2cc(COc3ccccc3)on2)C1(C)C |  | inconclusive: 100 µM [inhibitor, partial curve, poor fit]
